According to patent US10226413B2, “Solution solubilization composition of insoluble material and method for solubilizing insoluble material using same” (Damy Chemical Co., Ltd., priority 2013, dated 2019):
At least one read-out could not be matched to a standard name with certainty. Some compounds share one wording; it may come from a single statement.

Experiment: Turbidity and transmittance evaluation of solubilization products
Conditions: solubilization products of Example 6 from compositions of Example 5; FIGS. 9 and 10
Description: The turbidity of each lotion was measured using a spectrophotometer at 620 nm. A high turbidity of a liquid indicates cloudiness of the liquid and a low turbidity of a liquid indicates high transparency of the liquid. The turbidity (optical density) of the lotion was measured in the range of 0.01-1.0.
The amount of light passing through each solution was measured. The transmittance (T, %) of the solution for light was calculated as follows. First, the measured absorbance was substituted into -log t=A (absorbance, O.D). Since t is always not greater than 1, the transmittance (T) was calculated and expressed in percentage by T (%)=t×100. The transmittance is between 1 and 100%. The higher the transmittance, the higher the transparency. The transmittance of purified water was defined as 100%.

Question: With `CC1(C)CC[C@]2(C(=O)O)CC[C@]3(C)C(=CC[C@@H]4[C@@]5(C)CC[C@H](O)C(C)(C)[C@@H]5CC[C@]43C)[C@@H]2C1` [oleanolic acid] as the molecule, how does the “solubilization in water by the composition (turbidity and transmittance)” value (from here on “solubilization in water”) read?
Answer: The value was “can solubilize”.

Question: Which “solubilization in water” value does the source give for ceramide here?
Answer: Its value is “can solubilize”.

Question: For `Oc1ccc(C=Cc2cc(O)cc(O)c2)cc1` [resveratrol], which “solubilization in water” value is on record?
Answer: Its value is “can solubilize”.

Question: Which “solubilization in water” value does the source give for `CC1=C(/C=C/C(C)=C/C=C/C(C)=C/C=C/C=C(C)/C=C/C=C(C)/C=C/C2=C(C)C(=O)[C@@H](O)CC2(C)C)C(C)(C)C[C@H](O)C1=O` [astaxanthin] here?
Answer: The value was “can solubilize”.
